This passage reports binding results from paper PMC4709127, “Wuho Is a New Member in Maintaining Genome Stability through its Interaction with Flap Endonuclease 1”.

The chains behind the UniProt entries cited, without tags or fusion partners.
UniProt P39748: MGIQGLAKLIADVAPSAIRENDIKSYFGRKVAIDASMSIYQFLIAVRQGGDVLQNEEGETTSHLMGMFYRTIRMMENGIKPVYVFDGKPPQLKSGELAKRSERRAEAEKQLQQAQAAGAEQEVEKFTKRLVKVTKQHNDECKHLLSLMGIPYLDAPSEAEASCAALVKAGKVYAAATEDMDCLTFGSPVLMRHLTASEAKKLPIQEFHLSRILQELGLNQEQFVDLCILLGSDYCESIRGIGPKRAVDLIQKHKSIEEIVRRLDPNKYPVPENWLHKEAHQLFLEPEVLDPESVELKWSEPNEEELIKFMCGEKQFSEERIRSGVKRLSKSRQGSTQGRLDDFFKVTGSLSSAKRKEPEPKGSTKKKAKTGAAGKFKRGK
UniProt P12004: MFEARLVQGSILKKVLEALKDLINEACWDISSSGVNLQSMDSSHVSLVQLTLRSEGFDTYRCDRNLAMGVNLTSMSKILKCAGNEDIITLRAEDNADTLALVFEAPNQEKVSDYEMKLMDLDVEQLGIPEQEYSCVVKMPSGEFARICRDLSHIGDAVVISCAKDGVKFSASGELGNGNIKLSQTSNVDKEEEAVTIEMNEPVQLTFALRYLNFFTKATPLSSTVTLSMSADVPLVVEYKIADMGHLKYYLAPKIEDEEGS

Experiment [1] addresses T1, human Wuho protein (hWH), endogenous (human (endogenous in HCT116)) (UniProt P57081).
T1 sequence: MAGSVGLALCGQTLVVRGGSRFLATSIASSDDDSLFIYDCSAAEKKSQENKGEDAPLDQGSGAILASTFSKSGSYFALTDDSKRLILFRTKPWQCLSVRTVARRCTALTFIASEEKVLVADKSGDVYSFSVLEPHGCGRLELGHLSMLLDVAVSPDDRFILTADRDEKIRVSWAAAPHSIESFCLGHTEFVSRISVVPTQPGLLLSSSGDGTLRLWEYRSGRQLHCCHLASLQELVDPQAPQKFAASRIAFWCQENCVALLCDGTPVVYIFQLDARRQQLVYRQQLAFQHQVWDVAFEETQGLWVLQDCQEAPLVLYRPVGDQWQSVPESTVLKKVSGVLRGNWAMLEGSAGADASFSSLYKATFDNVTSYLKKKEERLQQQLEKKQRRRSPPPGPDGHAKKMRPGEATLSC
As to the kind of experiment: co-IP; endogenous proteins, HCT116 p53+/+ lysate in RIPA buffer, Protein A magnetic beads with anti-hWH or anti-FEN1 antibody, 0.1 U/ml micrococcal nuclease, 4°C overnight, western blot. In general terms: In western blotting, separated proteins are transferred to a membrane and probed.

Experiment [2] deals with T2, human Wuho protein (hWH) tagged with V5 and hexahistidine epitopes (human) (UniProt P57081).
T2 sequence: T1 sequence
The experiment is described as follows: co-IP; same anti-V5 bead-bound proteins of hWH-V5-His6 cells, partners detected by western blot.

Experiment [3] addresses T3, hWH with a C-terminal hexahistidine tag (human) (UniProt P57081).
T3 sequence: T1 sequence
As to the kind of experiment: pull-down; purified proteins, His6-tagged protein held on Ni(II)-NTA beads, partner detected by western blot; both purified.

No constants are given. Whether binding was seen depends on the method and setting. For part of these data: In cells and extracts the contact can be indirect. Some binding calls cover weakened binding; strength is not graded here. For part of these data: Where a sequence is shown, tags or fusion partners need not be part of it.

For “flap endonuclease 1 (FEN1), endogenous (from UniProt P39748 1-380) (enzyme)”, the binding result in experiment [1] and in experiment [2] was “binds” each time.

Consider “PCNA with a C-terminal FLAG tag (from UniProt P12004 1-261)”, for which the binding result in experiment [3] is recorded as “no binding”.
